{"source": "PubChem BioAssay AID2685", "about": "(National Center for Advancing Translational Sciences (NCATS), 2010)", "note": "Among all 320,000 compounds or so, about 2,100 (0.66%) were called active. Inconclusive means that the source gave no clear call. Such entries were picked first, then a sample of the others. Calls follow the shape of the dose curve; as a rule, active = well fitted inhibition curve with a large enough effect in the signal ratio, with a control signal flat (not every such curve was filed as active); inconclusive = small, poorly fitted or top-dose-only effect, or effect the other way, or a change in a side signal; inactive = flat fitted curve, though single readings scatter; the % refers to the signal ratio. Where the call is inconclusive, the potency comes from a doubtful curve fit. % is scaled to controls: 0 for no effect and ±100 for the full control effect; potency is read from the fitted curve at half-maximal effect.", "data": [{"test": "qHTS Assay for Lipid Storage Modulators in Drosophila S3 Cells", "settings": "BODIPY lipid droplet fluorescence, 18-24 h, cells fed with added oleic acid; lipid storage change, negative = inhibition: at 46.1 µM (top of the series) unless noted", "in_short": "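Drosophila S3 cells got compounds at several concentrations plus oleic acid (400 uM solution). Laser-scanning cytometry with 488 nm excitation read lipid droplets at 500-530 nm and cells at 575-640 nm. Percent activity was relative to 20 uM Triacsin C.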", "values": [{"smiles": "Cc1ccc2[nH]c(=O)c(COC(=O)c3ccccn3)cc2c1", "Potency": "inconclusive: 8.2 µM [activator, partial curve, poor fit]"}, {"smiles": "O=C(CSCc1cnn(-c2ccccc2)c1-n1cccc1)NCC1CCCO1", "note": "(configuration not stated)", "lipid storage change, negative = inhibition": "inconclusive: -0.0776%"}, {"smiles": "COc1ccc2[nH]cc(C(=O)C(=O)N3CCCCC3)c2c1", "lipid storage change, negative = inhibition": "inconclusive: 30.2%"}, {"smiles": "O=C(c1sc(N2CCOCC2)nc1-c1ccccc1)N1CCCCC1", "lipid storage change, negative = inhibition": "inactive: 3.96%"}, {"smiles": "C=CCN(C(=O)c1csnn1)C(C(=O)NC1CCCC1)c1ccc(OC)cc1", "note": "(configuration not stated)", "Potency": "inconclusive: 20.6 µM [activator, single point]"}, {"smiles": "COc1ccc(CCN2CC(C(=O)OCC(=O)Nc3c(C)nn(-c4ccccc4)c3C)CC2=O)cc1OC", "note": "(configuration not stated)", "lipid storage change, negative = inhibition": "inconclusive"}, {"smiles": "Cc1ccc(S(=O)(=O)NCC(=O)N2CCOCCOCCOCCOCC2)cc1", "Potency": "inconclusive: 6.51 µM [activator, partial curve, poor fit]"}, {"smiles": "Brc1ccc(-c2nnc3ccc(Nc4ccccc4)nn23)cc1", "Potency": "inconclusive: 0.231 µM [activator, full curve, poor fit]"}, {"smiles": "c1ccc2c(c1)OCCOCCOCCO2", "Potency": "inconclusive: 6.51 µM [activator, single point]"}, {"smiles": "O=C(Nc1ccc(-c2cn3ccccc3n2)cc1)c1ccc(Cl)cc1", "Potency": "inconclusive: 14.6 µM [falling, partial curve]"}, {"smiles": "Cc1ncc([N+](=O)[O-])n1CC(=O)Nc1ccc(OC(F)(F)Cl)cc1", "lipid storage change, negative = inhibition": "inconclusive: 26%"}, {"smiles": "CCOc1cc(S(=O)(=O)n2c(C)nc3ccccc32)ccc1F", "Potency": "inconclusive: 2.31 µM [falling, single point]"}, {"smiles": "Nc1nc2nc(SCC(=O)N3CCCc4ccccc43)[nH]c2c(=O)[nH]1", "lipid storage change, negative = inhibition": "inconclusive: 36.3%"}, {"smiles": "O=C(O)c1cc(NS(=O)(=O)c2ccc(NCc3ccccc3)c([N+](=O)[O-])c2)cc(C(=O)O)c1", "lipid storage change, negative = inhibition": "inconclusive: 33.2%"}, {"smiles": "Cc1ccccc1CN(C)C(=O)[C@H](Cc1ccccc1)NC(=O)c1ccco1", "Potency": "inconclusive: 0.58 µM [falling, full curve]"}, {"smiles": "O=C(Oc1ccc(Br)cc1)C1CCN(C2=NS(=O)(=O)c3ccccc32)CC1", "lipid storage change, negative = inhibition": "inconclusive: -41.1%"}, {"smiles": "Nc1c(Cl)cc(C2=NCCn3nc4cc([N+](=O)[O-])ccc4c32)cc1Cl", "Potency": "active: 5.17 µM"}, {"smiles": "O=C(COc1ccc(F)cc1F)NNC(=O)Nc1cccc([N+](=O)[O-])c1", "Potency": "inconclusive: 29.1 µM [falling, single point]"}, {"smiles": "C=CCc1ccc(OCCCCNC2CCCC2)c(OC)c1", "lipid storage change, negative = inhibition": "inactive: -10.2% [at 9.22 µM]"}, {"smiles": "COCc1ccc(C(=O)N2CCCC(N3CCN(c4ccc(F)cc4)CC3)C2)o1", "note": "(configuration not stated)", "Potency": "inconclusive: 29.1 µM [activator, single point]"}, {"smiles": "Cc1ccc(S(=O)(=O)N(CC(=O)O)Cc2ccccc2)cc1", "lipid storage change, negative = inhibition": "inconclusive: 8.93%"}, {"smiles": "Cn1c(=O)c2c(SCC(=O)c3ccccc3)nc(C3CC3)nc2n(C)c1=O", "lipid storage change, negative = inhibition": "inconclusive: 0.231%"}, {"smiles": "COc1ccccc1N1CCN(C(=O)c2cc(-c3ccccc3O)on2)CC1", "Potency": "inconclusive: 29.1 µM [activator, single point]"}, {"smiles": "Cc1ccc(NC(=O)C2CCN(S(=O)(=O)c3ccc4c(c3)NC(=O)CO4)CC2)cc1C", "Potency": "inconclusive: 5.8 µM [activator, single point]"}, {"smiles": "CCOC(=O)c1c(NC(=S)N2CCN(C)CC2)sc(C)c1-c1ccccc1", "lipid storage change, negative = inhibition": "inconclusive: -43.5%"}, {"smiles": "CC1CCN(C(=O)CCNS(=O)(=O)c2ccc(Br)cc2)CC1", "lipid storage change, negative = inhibition": "inconclusive: -28.3%"}, {"smiles": "Cn1c(O)c(N=NC(=O)Cn2ccc(C(F)(F)F)n2)c2ccccc21", "Potency": "inconclusive: 0.731 µM [activator, full curve, poor fit]"}, {"smiles": "Nc1nc(-c2ccccc2)nc2sc3c(c12)CCCC3", "lipid storage change, negative = inhibition": "inconclusive: 25.4%"}, {"smiles": "COc1ccc(Cn2c(=O)n(Cc3ccco3)c(=N)c3c4c(sc32)COC(C)(C)C4)cc1", "lipid storage change, negative = inhibition": "inconclusive: 10.3%"}, {"smiles": "O=C(NC(N1CCOCC1)C(Cl)(Cl)Cl)c1ccc(F)cc1", "note": "(configuration not stated)", "Potency": "inconclusive: 6.51 µM [cytotoxic, single point]"}, {"smiles": "O=C(Nc1nncs1)c1cc(S(=O)(=O)N2CCOCC2)ccc1Cl", "lipid storage change, negative = inhibition": "inconclusive: 99%"}, {"smiles": "N=c1oc2ccccc2cc1C(=O)Nc1ccccc1", "outcome": "inactive [at 46.1 µM]"}, {"smiles": "CC(C)CCN1C(=O)c2ccc(C(=O)NCc3ccco3)cc2C1=O", "lipid storage change, negative = inhibition": "inconclusive: 10.2%"}, {"smiles": "COc1ccc2[nH]c(=O)c(CN(C(=O)c3ccncc3)C(C)(C)C)cc2c1", "Potency": "inconclusive: 18.4 µM [activator, single point]"}, {"smiles": "COc1ccc(C(=O)N=c2sc3c(C)ccc(OC)c3n2C)cc1OC", "lipid storage change, negative = inhibition": "inconclusive: 21%"}, {"smiles": "CCCN(C(=O)COC(=O)CCOc1ccccc1)c1c(N)n(Cc2ccccc2)c(=O)[nH]c1=O", "Potency": "active: 14.6 µM"}, {"smiles": "CN(C)c1ccc(CNn2cnnc2SCc2ccc(F)cc2)cc1", "lipid storage change, negative = inhibition": "inconclusive: 77.7%"}, {"smiles": "COc1ccc(C2CC(c3ccccc3Cl)Nc3ncnn32)cc1OC", "note": "(configuration not stated)", "Potency": "inconclusive: 10.3 µM [falling, single point]"}, {"smiles": "O=C(CN1CCN(C2CCS(=O)(=O)C2)CC1)N1N=C(c2ccc(Cl)cc2)CC1c1ccco1", "note": "(configuration not stated)", "lipid storage change, negative = inhibition": "inconclusive: 37.3%"}, {"smiles": "Cc1ccc2nc(NC(=O)C3CC3C)sc2c1", "note": "(configuration not stated)", "lipid storage change, negative = inhibition": "inconclusive: -157%"}, {"smiles": "Cc1nc2cc(NCc3ccc(Cl)cc3)ccc2n1C", "Potency": "inconclusive: 0.731 µM [falling, partial curve, poor fit]"}, {"smiles": "Cc1ccc(CN2CC(C(=O)N3CCN(c4ccccc4Cl)CC3)CC2=O)cc1", "note": "(configuration not stated)", "lipid storage change, negative = inhibition": "inconclusive: 25.9%"}, {"smiles": "CCOC(=O)C1=C(CC)Nc2ccccc2N=C1NC(=O)c1cccc(S(=O)(=O)N2CCCC2)c1", "lipid storage change, negative = inhibition": "inconclusive: 15.4%"}, {"smiles": "Cc1cc(C)c(S(=O)(=O)c2cccc(C)c2C)c(=O)[nH]1", "lipid storage change, negative = inhibition": "inconclusive: 15.9%"}, {"smiles": "CCOC(=O)N1CCN(C(=O)C(c2ccccc2)c2ccccc2)CC1", "lipid storage change, negative = inhibition": "inconclusive: -2.31%"}, {"smiles": "CCC(C)(C)n1nnnc1C(c1cccs1)N1CCN(c2nc3ccccc3s2)CC1", "note": "(configuration not stated)", "Potency": "inconclusive: 11.6 µM [activator, partial curve]"}, {"smiles": "N#Cc1ccc(OCC(=O)N2CCN(c3ccc(C(F)(F)F)cn3)CC2)cc1", "Potency": "inconclusive: 29.1 µM [activator, single point]"}]}]}
